# Test results reported in the supplement of paper PMC10849652.
# Protein sequences, listed by entry. Tags and fused reporters are not part of them. Lines headed by an entry give the natural chain unless they say otherwise; changes in a name come on top.
# UniProt P55854, whole entry, looked up: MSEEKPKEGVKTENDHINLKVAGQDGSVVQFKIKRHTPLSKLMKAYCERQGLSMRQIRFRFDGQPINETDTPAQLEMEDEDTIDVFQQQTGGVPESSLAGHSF
# UniProt A2RTX5: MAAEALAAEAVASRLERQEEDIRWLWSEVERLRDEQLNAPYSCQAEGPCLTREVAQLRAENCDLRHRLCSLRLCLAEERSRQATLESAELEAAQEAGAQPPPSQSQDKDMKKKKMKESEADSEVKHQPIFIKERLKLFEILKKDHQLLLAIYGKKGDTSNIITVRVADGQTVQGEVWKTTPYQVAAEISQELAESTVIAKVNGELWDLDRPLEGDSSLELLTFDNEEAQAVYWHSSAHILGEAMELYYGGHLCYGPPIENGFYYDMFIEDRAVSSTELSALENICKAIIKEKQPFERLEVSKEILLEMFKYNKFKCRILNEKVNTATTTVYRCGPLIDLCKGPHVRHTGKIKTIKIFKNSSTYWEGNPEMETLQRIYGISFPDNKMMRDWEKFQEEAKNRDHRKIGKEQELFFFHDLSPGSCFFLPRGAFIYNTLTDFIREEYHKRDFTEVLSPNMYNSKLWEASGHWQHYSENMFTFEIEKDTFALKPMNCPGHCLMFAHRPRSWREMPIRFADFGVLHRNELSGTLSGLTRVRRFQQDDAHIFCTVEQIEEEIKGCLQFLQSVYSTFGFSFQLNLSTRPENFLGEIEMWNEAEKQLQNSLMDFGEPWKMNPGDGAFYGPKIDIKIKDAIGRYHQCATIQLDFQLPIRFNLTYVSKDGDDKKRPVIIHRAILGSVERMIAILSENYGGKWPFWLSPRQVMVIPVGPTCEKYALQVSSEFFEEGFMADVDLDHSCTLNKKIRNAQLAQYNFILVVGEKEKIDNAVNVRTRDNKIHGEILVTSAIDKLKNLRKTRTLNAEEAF
# UniProt Q96SI9: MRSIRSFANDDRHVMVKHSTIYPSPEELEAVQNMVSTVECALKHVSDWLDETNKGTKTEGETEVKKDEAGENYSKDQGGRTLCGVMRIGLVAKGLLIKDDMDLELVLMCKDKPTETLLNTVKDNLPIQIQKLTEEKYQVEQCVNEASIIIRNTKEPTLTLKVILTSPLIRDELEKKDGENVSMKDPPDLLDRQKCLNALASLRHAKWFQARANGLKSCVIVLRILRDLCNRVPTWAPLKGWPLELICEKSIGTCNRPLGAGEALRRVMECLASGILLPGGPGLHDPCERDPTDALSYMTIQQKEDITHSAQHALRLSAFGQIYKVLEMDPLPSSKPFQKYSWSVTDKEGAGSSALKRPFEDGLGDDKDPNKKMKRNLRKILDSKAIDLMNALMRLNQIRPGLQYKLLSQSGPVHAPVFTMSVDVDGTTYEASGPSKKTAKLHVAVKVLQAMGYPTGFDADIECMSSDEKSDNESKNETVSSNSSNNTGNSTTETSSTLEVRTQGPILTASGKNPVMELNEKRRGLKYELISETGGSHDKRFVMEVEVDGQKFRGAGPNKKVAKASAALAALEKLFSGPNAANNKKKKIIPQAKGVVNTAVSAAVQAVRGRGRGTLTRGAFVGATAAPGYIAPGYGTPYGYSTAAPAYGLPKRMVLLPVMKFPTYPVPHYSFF
# UniProt Q7Z7C8, whole entry, looked up: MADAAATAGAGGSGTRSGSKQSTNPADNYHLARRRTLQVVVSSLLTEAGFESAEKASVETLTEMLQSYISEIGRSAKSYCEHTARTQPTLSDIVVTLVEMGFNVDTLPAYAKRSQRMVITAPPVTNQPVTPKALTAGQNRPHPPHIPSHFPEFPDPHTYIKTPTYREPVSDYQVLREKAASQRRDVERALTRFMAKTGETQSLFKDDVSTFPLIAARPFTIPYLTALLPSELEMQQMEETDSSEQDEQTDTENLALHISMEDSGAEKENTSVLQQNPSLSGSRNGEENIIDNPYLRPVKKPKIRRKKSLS
# UniProt P0DMM9: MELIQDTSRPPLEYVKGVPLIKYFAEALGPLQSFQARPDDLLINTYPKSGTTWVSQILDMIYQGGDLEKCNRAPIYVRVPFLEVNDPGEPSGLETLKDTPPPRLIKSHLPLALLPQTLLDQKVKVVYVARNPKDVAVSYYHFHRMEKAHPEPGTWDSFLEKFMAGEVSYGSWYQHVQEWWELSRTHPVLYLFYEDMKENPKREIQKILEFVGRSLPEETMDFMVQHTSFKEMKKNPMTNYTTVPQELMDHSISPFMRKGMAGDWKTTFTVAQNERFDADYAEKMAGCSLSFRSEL
# UniProt Q92797: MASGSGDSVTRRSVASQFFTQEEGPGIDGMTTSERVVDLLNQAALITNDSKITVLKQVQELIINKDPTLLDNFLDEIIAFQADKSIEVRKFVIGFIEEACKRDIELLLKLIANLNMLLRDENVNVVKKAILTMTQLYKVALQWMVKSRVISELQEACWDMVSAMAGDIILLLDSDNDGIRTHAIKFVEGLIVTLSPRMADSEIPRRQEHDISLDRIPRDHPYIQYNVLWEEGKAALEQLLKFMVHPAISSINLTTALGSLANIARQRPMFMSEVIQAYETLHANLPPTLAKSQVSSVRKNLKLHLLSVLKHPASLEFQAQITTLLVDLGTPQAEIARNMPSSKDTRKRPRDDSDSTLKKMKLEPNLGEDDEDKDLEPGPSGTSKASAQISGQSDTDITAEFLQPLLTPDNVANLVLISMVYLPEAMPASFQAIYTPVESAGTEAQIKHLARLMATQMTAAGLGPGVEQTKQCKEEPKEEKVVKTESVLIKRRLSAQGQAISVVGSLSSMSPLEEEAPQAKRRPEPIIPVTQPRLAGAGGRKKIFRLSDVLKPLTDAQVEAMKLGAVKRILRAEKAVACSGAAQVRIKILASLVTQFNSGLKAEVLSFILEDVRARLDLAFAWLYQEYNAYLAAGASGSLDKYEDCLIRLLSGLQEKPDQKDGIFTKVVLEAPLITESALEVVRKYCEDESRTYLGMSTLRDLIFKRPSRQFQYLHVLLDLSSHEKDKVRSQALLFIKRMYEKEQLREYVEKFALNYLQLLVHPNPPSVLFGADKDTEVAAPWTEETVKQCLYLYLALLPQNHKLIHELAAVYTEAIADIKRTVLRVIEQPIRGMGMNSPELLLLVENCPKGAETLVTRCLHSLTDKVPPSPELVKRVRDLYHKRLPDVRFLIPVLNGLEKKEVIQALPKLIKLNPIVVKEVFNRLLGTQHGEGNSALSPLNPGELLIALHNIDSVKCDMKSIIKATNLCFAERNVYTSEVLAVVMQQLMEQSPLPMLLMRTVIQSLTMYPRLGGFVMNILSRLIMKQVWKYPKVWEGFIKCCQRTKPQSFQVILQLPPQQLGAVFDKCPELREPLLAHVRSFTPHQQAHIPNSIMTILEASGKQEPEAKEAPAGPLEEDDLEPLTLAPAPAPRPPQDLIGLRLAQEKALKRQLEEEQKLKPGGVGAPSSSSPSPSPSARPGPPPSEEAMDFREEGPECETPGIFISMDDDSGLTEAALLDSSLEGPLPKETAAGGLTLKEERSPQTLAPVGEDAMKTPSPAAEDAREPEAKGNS
# UniProt Q16594, whole entry, looked up: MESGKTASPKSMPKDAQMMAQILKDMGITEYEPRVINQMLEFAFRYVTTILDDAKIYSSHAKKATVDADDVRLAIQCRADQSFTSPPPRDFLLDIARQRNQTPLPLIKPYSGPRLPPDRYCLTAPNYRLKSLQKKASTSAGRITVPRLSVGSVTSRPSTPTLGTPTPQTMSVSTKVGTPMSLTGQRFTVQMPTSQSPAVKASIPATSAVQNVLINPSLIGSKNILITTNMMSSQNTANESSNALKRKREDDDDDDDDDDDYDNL
# UniProt Q9P2W9: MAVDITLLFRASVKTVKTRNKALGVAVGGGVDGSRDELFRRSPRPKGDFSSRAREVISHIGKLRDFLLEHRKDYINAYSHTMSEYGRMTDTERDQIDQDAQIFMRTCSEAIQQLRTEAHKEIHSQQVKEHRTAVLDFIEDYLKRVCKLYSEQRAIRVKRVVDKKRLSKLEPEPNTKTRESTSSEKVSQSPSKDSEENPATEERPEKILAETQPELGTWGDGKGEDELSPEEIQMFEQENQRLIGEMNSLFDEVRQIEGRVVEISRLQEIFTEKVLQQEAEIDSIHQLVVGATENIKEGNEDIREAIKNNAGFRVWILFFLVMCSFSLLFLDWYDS
# UniProt Q6ICL3: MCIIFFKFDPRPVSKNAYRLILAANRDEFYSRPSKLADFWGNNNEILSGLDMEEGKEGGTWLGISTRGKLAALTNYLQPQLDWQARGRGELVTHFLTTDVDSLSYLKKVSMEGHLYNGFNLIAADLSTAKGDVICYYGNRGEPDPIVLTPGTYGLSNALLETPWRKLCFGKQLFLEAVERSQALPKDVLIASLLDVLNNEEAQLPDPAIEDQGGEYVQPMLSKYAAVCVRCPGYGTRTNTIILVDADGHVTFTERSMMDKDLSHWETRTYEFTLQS
# UniProt Q96I99: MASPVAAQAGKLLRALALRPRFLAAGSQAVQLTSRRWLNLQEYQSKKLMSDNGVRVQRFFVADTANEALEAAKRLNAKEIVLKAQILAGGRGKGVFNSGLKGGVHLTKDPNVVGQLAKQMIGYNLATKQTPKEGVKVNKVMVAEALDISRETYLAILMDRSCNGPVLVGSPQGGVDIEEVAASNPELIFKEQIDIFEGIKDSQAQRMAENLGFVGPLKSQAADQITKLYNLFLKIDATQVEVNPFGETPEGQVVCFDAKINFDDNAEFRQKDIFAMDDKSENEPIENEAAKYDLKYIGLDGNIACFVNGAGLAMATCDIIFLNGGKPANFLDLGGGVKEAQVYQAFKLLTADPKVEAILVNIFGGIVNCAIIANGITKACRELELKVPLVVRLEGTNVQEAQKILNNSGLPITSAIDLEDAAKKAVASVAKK
# UniProt Q15750: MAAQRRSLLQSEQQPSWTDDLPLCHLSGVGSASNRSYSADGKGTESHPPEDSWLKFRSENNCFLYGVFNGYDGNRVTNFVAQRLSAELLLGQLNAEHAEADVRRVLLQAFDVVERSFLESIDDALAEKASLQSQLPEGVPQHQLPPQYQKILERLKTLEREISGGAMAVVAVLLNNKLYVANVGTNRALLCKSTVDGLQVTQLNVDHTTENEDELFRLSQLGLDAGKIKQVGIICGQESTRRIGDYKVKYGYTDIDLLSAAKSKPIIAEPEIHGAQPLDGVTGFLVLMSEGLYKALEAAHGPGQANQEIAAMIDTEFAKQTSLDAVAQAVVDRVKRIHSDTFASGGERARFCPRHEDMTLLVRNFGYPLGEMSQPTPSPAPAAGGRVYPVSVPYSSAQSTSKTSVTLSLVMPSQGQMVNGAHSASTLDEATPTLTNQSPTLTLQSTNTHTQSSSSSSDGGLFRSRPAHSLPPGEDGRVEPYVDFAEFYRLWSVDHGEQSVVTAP
# UniProt Q92804: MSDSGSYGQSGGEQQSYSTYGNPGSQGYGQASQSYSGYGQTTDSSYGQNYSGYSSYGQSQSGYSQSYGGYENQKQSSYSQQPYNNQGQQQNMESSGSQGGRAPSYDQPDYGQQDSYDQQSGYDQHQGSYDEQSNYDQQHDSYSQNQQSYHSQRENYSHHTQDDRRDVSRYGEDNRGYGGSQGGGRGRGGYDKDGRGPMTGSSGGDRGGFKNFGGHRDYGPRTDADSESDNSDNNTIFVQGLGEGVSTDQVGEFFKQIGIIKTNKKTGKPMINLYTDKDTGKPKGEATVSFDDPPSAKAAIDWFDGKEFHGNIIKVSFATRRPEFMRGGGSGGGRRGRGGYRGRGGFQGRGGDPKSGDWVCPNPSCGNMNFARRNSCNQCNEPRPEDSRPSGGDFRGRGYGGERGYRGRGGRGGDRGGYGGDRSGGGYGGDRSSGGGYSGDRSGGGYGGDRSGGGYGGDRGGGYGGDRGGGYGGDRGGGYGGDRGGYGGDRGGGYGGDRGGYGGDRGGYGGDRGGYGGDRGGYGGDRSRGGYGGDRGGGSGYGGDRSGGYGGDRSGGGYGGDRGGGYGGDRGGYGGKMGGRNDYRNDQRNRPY
# UniProt Q96BW9: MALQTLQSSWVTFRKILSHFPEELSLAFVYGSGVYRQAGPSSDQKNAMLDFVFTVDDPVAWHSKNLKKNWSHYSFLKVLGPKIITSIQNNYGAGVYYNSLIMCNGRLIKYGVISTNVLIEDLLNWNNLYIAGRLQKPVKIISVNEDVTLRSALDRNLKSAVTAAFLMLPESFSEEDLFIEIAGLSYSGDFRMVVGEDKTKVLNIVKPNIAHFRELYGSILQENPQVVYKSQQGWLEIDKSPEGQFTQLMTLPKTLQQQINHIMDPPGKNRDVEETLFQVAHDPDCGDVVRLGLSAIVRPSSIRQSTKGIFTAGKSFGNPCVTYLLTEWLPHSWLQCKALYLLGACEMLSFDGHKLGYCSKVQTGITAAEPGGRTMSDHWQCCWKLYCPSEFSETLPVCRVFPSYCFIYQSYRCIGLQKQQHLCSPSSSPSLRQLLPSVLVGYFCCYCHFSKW
# This is one part of the list.
# What was measured:
# Experiment in all cases: log2 fold change, soluble protein after heating vs DMSO (PISA); higher = thermal stabilisation; K562 cells, 10 uM, 30 min; active = over 0.2 and 3.5 SD of the protein, either way, in both replicates (recomputed)
# [1] = compound: CC1=C(C=C(C=C1)NC(=O)C2=CC(=CC=C2)C(C)(C)C#N)NC3=CC4=C(C=C3)N=CN(C4=O)C
# Method in brief: (§1)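 Aliquots of K562 cells (2×10^6 cells/mL) treated with 10 μM compound for 30 min were heated for 3 min over 48°C-58°C. After pooling and extraction in PBS with 0.5% NP-40 at 4°C, soluble protein from a 21,000xg, 90 min spin was quantified by TMTpro 16plex LC-MS/MS with channel sums equalised. Thermal stability is expressed against control samples, from duplicates, as a log2 fold change.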
# [2] = compound: CC1=C(C=C(C=C1)NC(=O)C2=CC(=CC=C2)N(C)C)NC(=O)C3=CC=C(C=C3)O
# Method in brief: as §1
# [3] = compound: CC1=CC=C(C=C1)SC2=C3C=C(SC3=CN=C2)C(=O)N
# Method in brief: as §1
# [4] = compound: CC1=NC(=CC=C1)C2=C(N=C(N2)C(C)(C)C)C3=CC4=NC=CN=C4C=C3
# Method in brief: as §1
# [5] = compound: CCCCN(Cc1ccc(C(=O)NO)cc1)C(=O)Nc1ccccc1 [Nexturastat A]
# Method in brief: as §1
# [6] = compound: CCCS(=O)(=O)Nc1ccc(F)c(C(=O)c2c[nH]c3ncc(-c4ccc(Cl)cc4)cc23)c1F [vemurafenib]
# Method in brief: as §1
# [7] = compound: CCCS(=O)(=O)Nc1ccc(F)c(C(=O)c2c[nH]c3ncc(Cl)cc23)c1F
# Method in brief: as §1
# [8] = compound: CCCc1cc(C)[nH]c(=O)c1CNC(=O)c1cc(-c2ccnc(N3CCN(C)CC3)c2)cc2c1cnn2C(C)C
# Method in brief: as §1
# [9] = compound: CCN(CC)Cc1ccc2cc(COC(=O)Nc3ccc(C(=O)NO)cc3)ccc2c1 [givinostat]
# Method in brief: as §1
# [10] = compound: CCN(CCCOc1ccc2c(Nc3cc(CC(=O)Nc4cccc(F)c4)[nH]n3)ncnc2c1)CCOP(=O)(O)O [barasertib]
# Method in brief: as §1
# [11] = compound: CC[C@@H]1C(=O)N(C)c2cnc(Nc3ccc(C(=O)NC4CCN(C)CC4)cc3OC)nc2N1C1CCCC1
# Method in brief: as §1
# [12] = compound: CC[C@@H]1C(=O)N(C)c2cnc(Nc3ccc(C(=O)N[C@H]4CC[C@H](N5CCN(CC6CC6)CC5)CC4)cc3OC)nc2N1C(C)C [volasertib]
# Method in brief: as §1
# [13] = compound: CC[C@H](C)N1C=C(C2=C(C=C(C=C21)C3=CN=C(C=C3)N4CCNCC4)C(=O)NCC5=C(C=C(NC5=O)C)C)C
# Method in brief: as §1
# [14] = compound: CC[C@H](C)[C@@H](C(=O)N[C@@H]([C@@H](C)O)C(=O)N[C@@H](CC(C)C)C(=O)[C@]1(CO1)C)NC(=O)[C@H]([C@@H](C)CC)N(C)C(=O)C [epoxomicin]
# Method in brief: as §1
# [15] = compound: CCn1c(C(=O)N(C2CC2)C2CC2)cc2c3c(ncn3C)c(Nc3cc(C)n(C)n3)nc21
# Method in brief: as §1
# [16] = compound: CCn1cc(-c2ccnc3[nH]c(-c4cccc(CN(C)C)c4)cc23)c(-c2ccc(NC(=O)N(C)C)cc2)n1
# Method in brief: as §1
# [17] = compound: CN(C)CC(=O)Nc1ccc2[nH]c(=O)c3ccccc3c2c1
# Method in brief: as §1
# [18] = compound: CN(CCOC1=CC=C(C=C1)C[C@H]2C(=O)NC(=O)S2)C3=CC=CC=N3 (racemic) [rosiglitazone]
# Method in brief: as §1
# [19] = compound: CN1C2=C(C3=C1C(=O)N(N=C3)CC4=CC(=CC=C4)N)SC(=C2)S(=O)C
# Method in brief: as §1
# [20] = compound: CN1CCC(CNc2ccc3ncc(-c4cccc(OC(F)(F)F)c4)n3n2)CC1
# Method in brief: as §1
Target,log2 fold change [1],log2 fold change [2],log2 fold change [3],log2 fold change [4],log2 fold change [5],log2 fold change [6],log2 fold change [7],log2 fold change [8],log2 fold change [9],log2 fold change [10],log2 fold change [11],log2 fold change [12],log2 fold change [13],log2 fold change [14],log2 fold change [15],log2 fold change [16],log2 fold change [17],log2 fold change [18],log2 fold change [19],log2 fold change [20]
SUMO3 isoform 2 (UniProt P55854),inactive: -0.097,inactive: 0.062,inactive: -0.028,inactive: -0.09,inactive: 0.075,inactive: -0.07,inactive: -0.039,inactive: -0.014,inactive: -0.038,inactive: -0.079,inactive: 0.04,inactive: 0.222,inactive: -0.074,inactive: -0.068,inactive: 0.066,inactive: 0.08,inactive: -0.082,inactive: -0.043,inactive: 0.063,inactive: -0.08
TARSL2 (UniProt A2RTX5),inactive: 0.015,inactive: -0.034,inactive: 0.003,inactive: -0.065,inactive: -0.01,inactive: -0.004,inactive: -0.005,inactive: 0.007,inactive: -0.028,inactive: 0.041,inactive: -0.001,inactive: -0.015,inactive: 0.001,inactive: -0.012,inactive: 0.036,inactive: -0.077,inactive: 0.016,inactive: 0.023,inactive: -0.02,inactive: -0.157
STRBP (UniProt Q96SI9),inactive: 0.038,inactive: -0.005,inactive: -0.103,inactive: -0.04,inactive: 0.095,inactive: -0.155,inactive: -0.244,inactive: 0.096,inactive: -0.031,inactive: -0.106,inactive: 0.169,inactive: 0.166,inactive: -0.075,inactive: -0.178,inactive: -0.008,,inactive: -0.038,inactive: -0.067,inactive: 0.23,
TAF8 isoform 2 (UniProt Q7Z7C8),inactive: -0.113,inactive: 0.027,inactive: 0.023,inactive: -0.011,inactive: -0.021,inactive: 0.056,inactive: -0.131,inactive: 0.048,inactive: 0.001,inactive: 0.01,inactive: 0.044,inactive: 0.052,inactive: 0.011,inactive: 0.041,inactive: 0.045,inactive: -0.062,inactive: 0.006,inactive: 0,inactive: 0.116,inactive: -0.045
SULT1A3 isoform 3 (UniProt P0DMM9),inactive: -0.012,inactive: -0.038,inactive: 0.164,inactive: 0.022,inactive: 0.07,inactive: 0.048,inactive: -0.027,inactive: 0.154,inactive: -0.015,inactive: 0.051,inactive: -0.094,inactive: -0.02,inactive: -0.036,inactive: 0.238,inactive: -0.007,inactive: 0.028,inactive: -0.075,inactive: 0.008,inactive: 0.082,inactive: -0.042
SYMPK (UniProt Q92797),inactive: 0.042,inactive: -0.004,inactive: 0.05,inactive: 0.005,inactive: -0.103,inactive: 0.119,inactive: 0.212,inactive: 0.051,inactive: 0.145,inactive: 0.042,inactive: -0.341,active: -0.5,inactive: -0.289,inactive: 0.073,,inactive: -0.026,inactive: 0.123,,inactive: 0.076,inactive: -0.141
TARBP1 (UniProt Q13395),inactive: 0.069,inactive: 0.001,inactive: 0.002,inactive: -0.01,inactive: 0.016,inactive: 0.036,inactive: -0.062,inactive: -0.067,inactive: -0.017,inactive: 0.023,inactive: -0.022,active: -0.337,inactive: -0.107,inactive: 0.121,,inactive: 0.077,inactive: -0.012,,inactive: 0.001,inactive: -0.027
TAOK3 (UniProt Q9H2K8),inactive: 0.028,inactive: -0.031,inactive: 0.078,inactive: 0.059,inactive: -0.054,inactive: 0.092,inactive: 0.115,inactive: 0,inactive: -0.019,inactive: 0.027,inactive: -0.005,inactive: -0.083,inactive: 0.058,inactive: 0.007,,inactive: -0.019,inactive: 0.059,,inactive: -0.067,inactive: -0.059
TAF9 (UniProt Q16594),inactive: 0.125,inactive: -0.007,inactive: -0.092,inactive: 0.018,inactive: 0,inactive: -0.017,inactive: -0.097,inactive: 0.02,inactive: 0.019,inactive: -0.019,inactive: -0.028,inactive: 0.095,inactive: -0.029,inactive: 0.12,,inactive: 0.034,inactive: -0.021,,inactive: 0.061,inactive: 0.077
STX18 (UniProt Q9P2W9),inactive: -0.054,inactive: -0.056,inactive: 0.042,inactive: -0.009,inactive: 0.024,inactive: 0.001,inactive: 0.024,inactive: 0.05,inactive: 0.038,inactive: 0.036,inactive: -0.059,inactive: -0.191,inactive: 0.073,inactive: 0.043,inactive: -0.027,inactive: -0.061,inactive: 0.03,inactive: 0.059,inactive: -0.089,inactive: -0.131
TANGO2 isoform 4 (UniProt Q6ICL3),inactive: -0.018,inactive: -0.075,inactive: -0.025,inactive: -0.023,inactive: -0.098,inactive: 0.003,inactive: -0.045,inactive: 0.032,inactive: -0.005,inactive: -0.025,inactive: -0.008,inactive: -0.002,inactive: 0.037,inactive: -0.001,inactive: 0,inactive: -0.032,inactive: -0.016,inactive: 0.022,inactive: -0.133,inactive: -0.013
SUCLG2 (UniProt Q96I99),inactive: -0.012,inactive: 0.02,inactive: 0.013,inactive: 0.048,inactive: -0.062,inactive: 0.031,inactive: 0.01,inactive: 0.012,inactive: 0.023,inactive: 0.01,inactive: -0.005,inactive: -0.065,inactive: 0.024,inactive: 0.036,inactive: 0.014,inactive: -0.053,inactive: 0.015,inactive: 0.024,inactive: -0.06,inactive: -0.049
TAB1 (UniProt Q15750),inactive: 0.073,inactive: -0.082,inactive: 0.057,inactive: 0.027,inactive: 0.122,inactive: 0.08,inactive: 0.045,inactive: 0.058,inactive: 0.083,inactive: 0.128,inactive: 0.005,inactive: -0.233,inactive: 0.074,inactive: 0.099,inactive: -0.048,inactive: -0.099,inactive: 0.041,inactive: -0.009,inactive: 0.045,inactive: -0.006
STRN3 (UniProt Q13033),inactive: -0.002,inactive: -0.021,inactive: 0.05,inactive: 0.02,inactive: -0.018,inactive: -0.019,inactive: 0.067,inactive: -0.036,inactive: -0.048,inactive: 0.028,inactive: -0.007,inactive: -0.073,inactive: 0.038,inactive: 0.043,inactive: 0.021,inactive: -0.033,inactive: 0.005,inactive: 0.033,inactive: -0.001,inactive: 0.026
TAF15 (UniProt Q92804),inactive: -0.008,inactive: 0.046,inactive: -0.016,inactive: 0.022,inactive: 0.086,inactive: 0,inactive: 0.004,inactive: -0.102,inactive: -0.076,inactive: -0.144,inactive: 0.158,inactive: 0.086,inactive: -0.017,inactive: -0.137,inactive: 0.024,inactive: 0.026,inactive: -0.075,inactive: -0.107,inactive: 0.108,inactive: 0.033
TAMM41 isoform 3 (UniProt Q96BW9),inactive: -0.021,inactive: -0.013,inactive: 0.049,inactive: 0.056,inactive: -0.084,inactive: -0.006,inactive: 0.04,inactive: -0.062,inactive: 0.036,inactive: 0.046,inactive: -0.209,active: -0.312,inactive: -0.004,inactive: 0.02,,inactive: 0.022,inactive: 0.013,,inactive: -0.052,active: -0.362
STRN (UniProt O43815),inactive: -0.019,inactive: -0.046,inactive: 0.019,inactive: -0.024,inactive: 0.001,inactive: 0.073,inactive: 0.035,inactive: -0.038,inactive: 0.002,inactive: 0.045,inactive: -0.031,inactive: -0.031,inactive: 0.026,inactive: 0.046,,inactive: -0.046,inactive: 0.02,,inactive: -0.031,inactive: 0.073

# Some of the entries above in a different format:
Target | log2 fold change [1] | log2 fold change [2] | log2 fold change [3] | log2 fold change [4] | log2 fold change [5] | log2 fold change [6] | log2 fold change [7] | log2 fold change [8] | log2 fold change [9] | log2 fold change [10] | log2 fold change [11] | log2 fold change [12] | log2 fold change [13] | log2 fold change [14] | log2 fold change [15] | log2 fold change [16] | log2 fold change [17] | log2 fold change [18] | log2 fold change [19] | log2 fold change [20]
SULT1A3 isoform 3 (UniProt P0DMM9) | inactive: -0.012 | inactive: -0.038 | inactive: 0.164 | inactive: 0.022 | inactive: 0.07 | inactive: 0.048 | inactive: -0.027 | inactive: 0.154 | inactive: -0.015 | inactive: 0.051 | inactive: -0.094 | inactive: -0.02 | inactive: -0.036 | inactive: 0.238 | inactive: -0.007 | inactive: 0.028 | inactive: -0.075 | inactive: 0.008 | inactive: 0.082 | inactive: -0.042
TAMM41 isoform 3 (UniProt Q96BW9) | inactive: -0.021 | inactive: -0.013 | inactive: 0.049 | inactive: 0.056 | inactive: -0.084 | inactive: -0.006 | inactive: 0.04 | inactive: -0.062 | inactive: 0.036 | inactive: 0.046 | inactive: -0.209 | active: -0.312 | inactive: -0.004 | inactive: 0.02 |  | inactive: 0.022 | inactive: 0.013 |  | inactive: -0.052 | active: -0.362
